Results are given in words; binding and its absence hold for the method and conditions named. In cells and extracts the contact can be indirect. These calls come from enrichment with a bait or labelling near it, and not all partners need be listed. A no says only that the protein was not detected with the bait. Sequences can lack the tags named with a protein.
B1: BAHD1 (protein, UniProt Q8TBE0 1-780)
chain: MTHTRRKSLPMLSSGLTGRREPLQMEDSNMEQGVEGVEPGMPESPGHLTGRRKNYPLRKRPLVPEKPKACKVLLTRLENVAGPRSADEADELPPDLPKPPSPAPSSEDPGLAQPRKRRLASLNAEALNNLLLEREDTSSLAGTRRSRAGDPHRSRDRDRATGGWSSSKKRPRLGDLGGGSRDLSPEPAPDEGPRRDGDPAPKRLASLNAAAFLKLSQERELPLRLPRAHAEVDGRSTEPPAPKAPRPKWPKVNGKNYPKAWQGASSGEAAGPPGWQGCPDEPWPSATPCGPSVQPSHQPLSKALESPLGLRPHLPLLMGGQAALKPEPGRPGEESPAPKQELHQPSFPTPQLSPLPMPGNPADYNGLCVGPELTALGSFYLYCGQEGLQCGGYSPCPMLPEGKLSPVAAPHEEGLLLAPSSVPSGTPFQHPPWGSSRYCSSEDTGVNGYSICGVLPLSVTHAGTTCGGCPYKMPFAAEGCRSLGQLEFPLPEAGHPASPAHPLLGCPVPSVPPAAEPVPHLQTPTSEPQTVARACPQSAKPPSGSKSGLRTGSSCRHTARSKAARRPSHPKQPRVQRPRPRRRRRRRTNGWVPVGAACEKAVYVLDEPEPAIRKSYQAVERHGETIRVRDTVLLKSGPRKTSTPYVAKISALWENPESGELMMSLLWYYRPEHLQGGRSPSMHEPLQNEVFASRHQDQNSVACIEEKCYVLTFAEYCRFCAMAKRRGEGLPSRKTALVPPSADYSTPPHRTVPEDTDPELVFLCRHVYDFRHGRILKNPQ
B2: PHF14 (protein, UniProt O94880 1-948)
chain: MDRSSKRRQVKPLAASLLEALDYDSSDDSDFKVGDASDSEGSGNGSEDASKDSGEGSCSDSEENILEEELNEDIKVKEEQLKNSAEEEVLSSEKQLIKMEKKEEEENGERPRKKKEKEKEKEKEKEKEKEREKEKEKATVSENVAASAAATTPATSPPAVNTSPSVPTTTTATEEQVSEPKKWNLRRNRPLLDFVSMEELNDMDDYDSEDDNDWRPTVVKRKGRSASQKEGSDGDNEDDEDEGSGSDEDENDEGNDEDHSSPASEGGCKKKKSKVLSRNSADDEELTNDSLTLSQSKSNEDSLILEKSQNWSSQKMDHILICCVCLGDNSEDADEIIQCDNCGITVHEGCYGVDGESDSIMSSASENSTEPWFCDACKCGVSPSCELCPNQDGIFKETDAGRWVHIVCALYVPGVAFGDIDKLRPVTLTEMNYSKYGAKECSFCEDPRFARTGVCISCDAGMCRAYFHVTCAQKEGLLSEAAAEEDIADPFFAYCKQHADRLDRKWKRKNYLALQSYCKMSLQEREKQLSPEAQARINARLQQYRAKAELARSTRPQAWVPREKLPRPLTSSASAIRKLMRKAELMGISTDIFPVDNSDTSSSVDGRRKHKQPALTADFVNYYFERNMRMIQIQENMAEQKNIKDKLENEQEKLHVEYNKLCESLEELQNLNGKLRSEGQGIWALLGRITGQKLNIPAILRAPKERKPSKKEGGTQKTSTLPAVLYSCGICKKNHDQHLLLLCDTCKLHYHLGCLDPPLTRMPRKTKNSYWQCSECDQAGSSDMEADMAMETLPDGTKRSRRQIKEPVKFVPQDVPPEPKKIPIRNTRTRGRKRSFVPEEEKHEERVPRERRQRQSVLQKKPKAEDLRTECATCKGTGDNENLVRCDECRLCYHFGCLDPPLKKSPKQTGYGWICQECDSSSSKEDENEAERKNISQELNMEQKNPKK
B3: PHF20L1 (protein, UniProt A8MW92 1-1017)
chain: MSKKPPNRPGITFEIGARLEALDYLQKWYPSRIEKIDYEEGKMLVHFERWSHRYDEWIYWDSNRLRPLERPALRKEGLKDEEDFFDFKAGEEVLARWTDCRYYPAKIEAINKEGTFTVQFYDGVIRCLKRMHIKAMPEDAKGQVKSQHPLSWCCPIDPAGSCNQSMGSEDWIALVKAAAAAAAKNKTGSKPRTSANSNKDKDKDERKWFKVPSKKEETSTCIATPDVEKKEDLPTSSETFGLHVENVPKMVFPQPESTLSNKRKNNQGNSFQAKRARLNKITGLLASKAVGVDGAEKKEDYNETAPMLEQAISPKPQSQKKNEADISSSANTQKPALLSSTLSSGKARSKKCKHESGDSSGCIKPPKSPLSPELIQVEDLTLVSQLSSSVINKTSPPQPVNPPRPFKHSERRRRSQRLATLPMPDDSVEKVSSPSPATDGKVFSISSQNQQESSVPEVPDVAHLPLEKLGPCLPLDLSRGSEVTAPVASDSSYRNECPRAEKEDTQMLPNPSSKAIADGRGAPAAAGISKTEKKVKLEDKSSTAFGKRKEKDKERREKRDKDHYRPKQKKKKKKKKKSKQHDYSDYEDSSLEFLERCSSPLTRSSGSSLASRSMFTEKTTTYQYPRAILSVDLSGENLSDVDFLDDSSTESLLLSGDEYNQDFDSTNFEESQDEDDALNEIVRCICEMDEENGFMIQCEECLCWQHSVCMGLLEESIPEQYICYICRDPPGQRWSAKYRYDKEWLNNGRMCGLSFFKENYSHLNAKKIVSTHHLLADVYGVTEVLHGLQLKIGILKNKHHPDLHLWACSGKRKDQDQIIAGVEKKIAQDTVNREEKKYVQNHKEPPRLPLKMEGTYITSEHSYQKPQSFGQDCKSLADPGSSDDDDVSSLEEEQEFHMRSKNSLQYSAKEHGMPEKNPAEGNTVFVYNDKKGTEDPGDSHLQWQLNLLTHIENVQNEVTSRMDLIEKEVDVLESWLDFTGELEPPDPLARLPQLKRHIKQLLIDMGKVQQIATLCSV
B4: ZNF512B (protein, UniProt Q96KM6 1-892)
chain: MTDPFCVGGRRLPGSSKSGPGKDGSRKEVRLPMLHDPPKMGMPVVRGGQTVPGQAPLCFDPGSPASDKTEGKKKGRPKAENQALRDIPLSLMNDWKDEFKAHSRVKCPNSGCWLEFPSIYGLKYHYQRCQGGAISDRLAFPCPFCEAAFTSKTQLEKHRIWNHMDRPLPASKPGPISRPVTISRPVGVSKPIGVSKPVTIGKPVGVSKPIGISKPVSVGRPMPVTKAIPVTRPVPVTKPVTVSRPMPVTKAMPVTKPITVTKSVPVTKPVPVTKPITVTKLVTVTKPVPVTKPVTVSRPIVVSKPVTVSRPIAISRHTPPCKMVLLTRSENKAPRATGRNSGKKRAADSLDTCPIPPKQARPENGEYGPSSMGQSSAFQLSADTSSGSLSPGSRPSGGMEALKAAGPASPPEEDPERTKHRRKQKTPKKFTGEQPSISGTFGLKGLVKAEDKARVHRSKKQEGPGPEDARKKVPAAPITVSKEAPAPVAHPAPGGPEEQWQRAIHERGEAVCPTCNVVTRKTLVGLKKHMEVCQKLQDALKCQHCRKQFKSKAGLNYHTMAEHSAKPSDAEASEGGEQEERERLRKVLKQMGRLRCPQEGCGAAFSSLMGYQYHQRRCGKPPCEVDSPSFPCTHCGKTYRSKAGHDYHVRSEHTAPPPEEPTDKSPEAEDPLGVERTPSGRVRRTSAQVAVFHLQEIAEDELARDWTKRRMKDDLVPETARLNYTRPGLPTLNPQLLEAWKNEVKEKGHVNCPNDCCEAIYSSVSGLKAHLASCSKGAHLAGKYRCLLCPKEFSSESGVKYHILKTHAENWFRTSADPPPKHRSQDSLVPKKEKKKNLAGGKKRGRKPKERTPEEPVAKLPPRRDDWPPGCRDKGARGSTGRKVGVSKAPEK
B5: PWWP2B (protein, UniProt Q6NUJ5 1-590)
chain: MEPRAGCRLPVRVEQVVNGALVVTVSCGERSFAGILLDCTKKSGLFGLPPLAPLPQVDESPVNDSHGRAPEEGDAEVMQLGSSSPPPARGVQPPETTRPEPPPPLVPPLPAGSLPPYPPYFEGAPFPHPLWLRDTYKLWVPQPPPRTIKRTRRRLSRNRDPGRLILSTIRLRPRQVLCEKCKSTLSPPEASPGPPAAPRARRRLGSGPDRELRKPEEPENGEPTAAATARRSKRERREEDRAPAEQVPRSPVIKISYSTPQGKGEVVKIPSRVHGSLEPFRPQQAPQDDGSQDPEVLDRESRDRPSCAPSASIPKLKLTRPVPAGADLPPPKIRLKPHRLGDSEHEPVYRAELVGELNGYLRDSSPAPCADGPAGGLADLSSGSSGEDDDFKSCPQGPQGREGLAFLVSCPEGRADCASESACSSDSLDEARSSGSEGTPADTGDLSPGHGASAPSVSREARQTVPPLTVRLHTQSVSECITEDGRTVAVGDIVWGKIHGFPWWPARVLDISLGQKEDGEPSWREAKVSWFGSPTTSFLSISKLSPFSEFFKLRFNRKKKGMYRKAITEAANAARHVAPEIRELLTQFET

Sequences of proteins named here, by UniProt entry; tags and fusion partners are left off.
UniProt Q7Z5J4: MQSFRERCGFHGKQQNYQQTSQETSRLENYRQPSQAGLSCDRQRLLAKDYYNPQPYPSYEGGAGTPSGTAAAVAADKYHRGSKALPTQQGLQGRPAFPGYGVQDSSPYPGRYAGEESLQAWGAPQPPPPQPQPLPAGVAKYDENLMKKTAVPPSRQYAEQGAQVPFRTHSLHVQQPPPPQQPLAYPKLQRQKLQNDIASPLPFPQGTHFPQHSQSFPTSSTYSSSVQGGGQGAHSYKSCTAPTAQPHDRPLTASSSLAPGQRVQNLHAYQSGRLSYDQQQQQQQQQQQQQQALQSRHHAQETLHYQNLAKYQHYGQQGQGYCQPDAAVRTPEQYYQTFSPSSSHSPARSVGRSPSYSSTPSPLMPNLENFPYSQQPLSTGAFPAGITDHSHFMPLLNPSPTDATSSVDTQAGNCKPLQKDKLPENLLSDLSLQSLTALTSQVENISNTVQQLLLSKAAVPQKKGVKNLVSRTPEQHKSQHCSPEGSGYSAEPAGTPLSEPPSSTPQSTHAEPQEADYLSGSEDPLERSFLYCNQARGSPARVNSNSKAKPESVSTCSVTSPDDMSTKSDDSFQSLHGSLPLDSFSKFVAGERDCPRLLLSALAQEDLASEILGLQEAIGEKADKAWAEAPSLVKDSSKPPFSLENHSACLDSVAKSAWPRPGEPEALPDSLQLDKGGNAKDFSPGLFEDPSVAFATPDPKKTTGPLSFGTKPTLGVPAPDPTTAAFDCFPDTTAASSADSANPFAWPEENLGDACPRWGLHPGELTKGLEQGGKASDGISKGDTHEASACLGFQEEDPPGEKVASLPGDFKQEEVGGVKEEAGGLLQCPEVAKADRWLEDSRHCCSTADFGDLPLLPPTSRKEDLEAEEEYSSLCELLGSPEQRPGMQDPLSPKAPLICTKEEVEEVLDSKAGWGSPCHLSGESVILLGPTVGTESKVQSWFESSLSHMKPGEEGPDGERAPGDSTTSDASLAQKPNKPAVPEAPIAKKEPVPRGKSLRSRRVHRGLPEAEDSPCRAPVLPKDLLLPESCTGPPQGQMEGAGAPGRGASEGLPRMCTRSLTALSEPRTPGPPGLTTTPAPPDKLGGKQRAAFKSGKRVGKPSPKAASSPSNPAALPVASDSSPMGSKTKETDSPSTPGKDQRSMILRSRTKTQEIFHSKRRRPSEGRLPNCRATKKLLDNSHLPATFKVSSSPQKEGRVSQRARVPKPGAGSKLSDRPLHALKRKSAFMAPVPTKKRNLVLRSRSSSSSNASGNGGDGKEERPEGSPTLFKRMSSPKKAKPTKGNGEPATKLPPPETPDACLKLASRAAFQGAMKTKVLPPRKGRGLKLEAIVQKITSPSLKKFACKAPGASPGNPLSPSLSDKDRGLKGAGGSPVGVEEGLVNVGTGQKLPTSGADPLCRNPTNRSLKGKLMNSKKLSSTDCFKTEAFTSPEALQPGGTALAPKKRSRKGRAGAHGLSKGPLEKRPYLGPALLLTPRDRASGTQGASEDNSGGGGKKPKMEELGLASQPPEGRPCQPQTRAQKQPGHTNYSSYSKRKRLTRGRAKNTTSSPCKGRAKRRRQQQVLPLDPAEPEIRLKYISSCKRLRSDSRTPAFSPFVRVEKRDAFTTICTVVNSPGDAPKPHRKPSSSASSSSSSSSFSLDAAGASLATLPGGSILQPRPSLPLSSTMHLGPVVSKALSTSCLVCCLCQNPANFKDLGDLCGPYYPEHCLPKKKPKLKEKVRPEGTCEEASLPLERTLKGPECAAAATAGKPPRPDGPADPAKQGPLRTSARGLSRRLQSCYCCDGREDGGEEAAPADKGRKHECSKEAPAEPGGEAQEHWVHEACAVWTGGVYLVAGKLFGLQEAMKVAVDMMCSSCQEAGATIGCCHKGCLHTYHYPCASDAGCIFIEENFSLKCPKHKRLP
UniProt Q9UBB5: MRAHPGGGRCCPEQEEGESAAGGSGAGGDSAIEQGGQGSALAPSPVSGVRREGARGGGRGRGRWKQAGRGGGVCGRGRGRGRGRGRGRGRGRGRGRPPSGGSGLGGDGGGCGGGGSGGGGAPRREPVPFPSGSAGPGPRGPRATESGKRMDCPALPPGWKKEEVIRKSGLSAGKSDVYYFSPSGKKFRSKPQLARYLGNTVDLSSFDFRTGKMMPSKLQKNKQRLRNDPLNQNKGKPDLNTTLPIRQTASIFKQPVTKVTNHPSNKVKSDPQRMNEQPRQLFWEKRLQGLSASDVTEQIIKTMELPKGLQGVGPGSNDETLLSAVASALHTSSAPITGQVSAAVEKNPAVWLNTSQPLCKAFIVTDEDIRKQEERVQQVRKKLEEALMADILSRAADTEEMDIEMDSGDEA
UniProt P46100: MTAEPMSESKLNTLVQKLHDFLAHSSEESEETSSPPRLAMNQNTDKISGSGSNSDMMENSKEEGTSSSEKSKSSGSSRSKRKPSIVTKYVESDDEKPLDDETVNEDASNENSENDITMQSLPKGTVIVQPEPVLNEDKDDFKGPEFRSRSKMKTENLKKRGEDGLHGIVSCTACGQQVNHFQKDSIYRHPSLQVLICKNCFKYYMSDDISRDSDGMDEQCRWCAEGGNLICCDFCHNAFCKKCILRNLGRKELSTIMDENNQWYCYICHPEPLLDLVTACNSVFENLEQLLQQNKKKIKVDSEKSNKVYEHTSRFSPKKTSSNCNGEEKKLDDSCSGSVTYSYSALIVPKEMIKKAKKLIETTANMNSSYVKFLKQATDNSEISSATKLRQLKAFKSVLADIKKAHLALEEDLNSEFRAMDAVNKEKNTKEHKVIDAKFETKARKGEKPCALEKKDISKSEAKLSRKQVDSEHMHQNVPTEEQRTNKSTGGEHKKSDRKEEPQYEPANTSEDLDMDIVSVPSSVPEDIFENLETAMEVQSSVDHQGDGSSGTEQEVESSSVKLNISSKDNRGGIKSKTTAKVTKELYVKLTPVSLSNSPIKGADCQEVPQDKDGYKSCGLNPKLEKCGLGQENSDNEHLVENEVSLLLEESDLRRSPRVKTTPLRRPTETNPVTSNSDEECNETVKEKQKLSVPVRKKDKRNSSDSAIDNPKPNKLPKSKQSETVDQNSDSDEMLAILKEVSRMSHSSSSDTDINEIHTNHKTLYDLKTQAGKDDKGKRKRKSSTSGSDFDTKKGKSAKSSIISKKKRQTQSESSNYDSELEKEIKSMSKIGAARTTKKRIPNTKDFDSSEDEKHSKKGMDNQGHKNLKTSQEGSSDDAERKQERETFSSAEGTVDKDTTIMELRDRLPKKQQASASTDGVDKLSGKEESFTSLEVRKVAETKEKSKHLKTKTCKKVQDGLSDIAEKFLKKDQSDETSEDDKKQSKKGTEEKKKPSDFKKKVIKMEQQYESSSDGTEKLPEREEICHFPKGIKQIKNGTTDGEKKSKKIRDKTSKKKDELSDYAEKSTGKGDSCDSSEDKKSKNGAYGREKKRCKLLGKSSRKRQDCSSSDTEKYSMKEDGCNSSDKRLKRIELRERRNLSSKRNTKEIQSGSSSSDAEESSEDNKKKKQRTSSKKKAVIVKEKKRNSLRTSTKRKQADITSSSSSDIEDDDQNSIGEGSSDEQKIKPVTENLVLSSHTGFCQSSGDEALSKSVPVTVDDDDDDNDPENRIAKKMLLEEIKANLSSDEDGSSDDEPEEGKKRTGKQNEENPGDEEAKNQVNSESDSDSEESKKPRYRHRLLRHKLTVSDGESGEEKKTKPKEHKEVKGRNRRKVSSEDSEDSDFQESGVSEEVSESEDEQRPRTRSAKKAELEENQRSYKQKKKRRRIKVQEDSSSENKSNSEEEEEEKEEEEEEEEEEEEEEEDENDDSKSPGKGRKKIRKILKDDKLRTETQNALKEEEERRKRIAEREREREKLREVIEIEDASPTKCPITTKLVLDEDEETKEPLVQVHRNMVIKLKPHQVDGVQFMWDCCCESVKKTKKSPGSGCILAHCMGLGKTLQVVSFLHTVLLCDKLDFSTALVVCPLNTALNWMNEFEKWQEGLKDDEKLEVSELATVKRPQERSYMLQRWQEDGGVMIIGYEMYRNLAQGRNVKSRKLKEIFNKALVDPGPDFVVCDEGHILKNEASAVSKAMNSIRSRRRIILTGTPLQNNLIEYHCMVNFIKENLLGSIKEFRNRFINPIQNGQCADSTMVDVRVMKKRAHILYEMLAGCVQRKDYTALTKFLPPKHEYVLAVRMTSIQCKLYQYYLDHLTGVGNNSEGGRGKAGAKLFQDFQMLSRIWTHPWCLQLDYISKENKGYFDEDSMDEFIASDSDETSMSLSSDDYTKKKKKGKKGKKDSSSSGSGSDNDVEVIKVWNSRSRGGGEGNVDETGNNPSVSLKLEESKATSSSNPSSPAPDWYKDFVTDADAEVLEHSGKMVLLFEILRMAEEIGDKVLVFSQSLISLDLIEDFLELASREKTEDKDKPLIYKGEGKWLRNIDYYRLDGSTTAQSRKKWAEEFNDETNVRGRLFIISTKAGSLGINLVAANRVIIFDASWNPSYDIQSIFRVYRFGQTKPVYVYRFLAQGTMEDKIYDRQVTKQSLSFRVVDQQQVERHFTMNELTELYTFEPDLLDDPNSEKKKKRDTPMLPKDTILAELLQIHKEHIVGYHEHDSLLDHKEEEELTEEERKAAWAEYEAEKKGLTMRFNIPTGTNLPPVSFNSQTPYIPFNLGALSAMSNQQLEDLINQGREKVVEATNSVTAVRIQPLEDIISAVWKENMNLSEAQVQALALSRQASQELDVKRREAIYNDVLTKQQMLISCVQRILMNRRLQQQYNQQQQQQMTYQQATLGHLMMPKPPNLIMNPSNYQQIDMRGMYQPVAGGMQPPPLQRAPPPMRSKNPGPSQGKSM
UniProt Q9NP66: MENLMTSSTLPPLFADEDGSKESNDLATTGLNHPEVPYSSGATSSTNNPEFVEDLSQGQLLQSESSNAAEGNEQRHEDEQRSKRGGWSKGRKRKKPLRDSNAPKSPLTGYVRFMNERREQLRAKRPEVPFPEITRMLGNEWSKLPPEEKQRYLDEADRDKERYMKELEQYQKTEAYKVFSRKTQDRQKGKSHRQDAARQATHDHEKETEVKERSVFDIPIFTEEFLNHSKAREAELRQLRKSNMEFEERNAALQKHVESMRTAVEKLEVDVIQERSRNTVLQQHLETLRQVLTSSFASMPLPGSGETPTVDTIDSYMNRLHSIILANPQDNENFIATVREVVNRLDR
UniProt Q9UER7: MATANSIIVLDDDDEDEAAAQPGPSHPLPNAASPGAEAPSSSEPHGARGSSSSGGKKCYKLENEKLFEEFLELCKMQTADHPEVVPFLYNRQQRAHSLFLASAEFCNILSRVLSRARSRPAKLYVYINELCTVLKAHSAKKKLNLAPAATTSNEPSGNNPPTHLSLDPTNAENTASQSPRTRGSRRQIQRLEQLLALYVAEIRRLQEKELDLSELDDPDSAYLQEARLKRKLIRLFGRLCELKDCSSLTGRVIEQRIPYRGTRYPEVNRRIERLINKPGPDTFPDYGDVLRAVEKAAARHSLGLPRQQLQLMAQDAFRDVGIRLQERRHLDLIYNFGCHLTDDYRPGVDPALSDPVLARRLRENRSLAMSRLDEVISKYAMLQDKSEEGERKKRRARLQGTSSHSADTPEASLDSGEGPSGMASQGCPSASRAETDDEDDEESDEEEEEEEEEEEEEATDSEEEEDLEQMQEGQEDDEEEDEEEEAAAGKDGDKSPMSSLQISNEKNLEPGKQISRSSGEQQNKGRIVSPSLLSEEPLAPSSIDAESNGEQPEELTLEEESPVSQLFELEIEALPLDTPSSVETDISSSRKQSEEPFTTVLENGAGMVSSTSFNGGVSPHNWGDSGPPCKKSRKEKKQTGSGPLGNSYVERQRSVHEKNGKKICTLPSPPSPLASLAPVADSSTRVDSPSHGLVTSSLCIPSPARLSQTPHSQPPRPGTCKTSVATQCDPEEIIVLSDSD
UniProt Q92769: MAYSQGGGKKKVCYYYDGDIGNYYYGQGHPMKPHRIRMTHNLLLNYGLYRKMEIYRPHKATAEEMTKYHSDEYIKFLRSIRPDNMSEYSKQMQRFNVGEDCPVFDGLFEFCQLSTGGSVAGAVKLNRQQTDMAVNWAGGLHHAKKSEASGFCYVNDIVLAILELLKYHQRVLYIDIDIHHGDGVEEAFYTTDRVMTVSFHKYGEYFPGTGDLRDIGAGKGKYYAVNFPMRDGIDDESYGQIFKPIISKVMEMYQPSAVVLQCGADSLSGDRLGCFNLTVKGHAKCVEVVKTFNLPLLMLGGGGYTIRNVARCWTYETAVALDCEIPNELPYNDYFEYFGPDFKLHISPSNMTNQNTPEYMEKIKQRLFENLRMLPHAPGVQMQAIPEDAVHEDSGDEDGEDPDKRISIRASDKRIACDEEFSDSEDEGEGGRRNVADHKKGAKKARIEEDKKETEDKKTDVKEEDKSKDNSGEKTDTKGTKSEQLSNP

Each molecule was assayed against T1, GFP–PWWP2A (human) (UniProt Q96N64) (assay: affinity purification with mass spectrometry; chromatin of HK cells stably expressing GFP or GFP–PWWP2A digested with MNase to mononucleosomes, GFP-TRAP beads, on-bead tryptic digestion, label-free MS/MS).
T1 sequence: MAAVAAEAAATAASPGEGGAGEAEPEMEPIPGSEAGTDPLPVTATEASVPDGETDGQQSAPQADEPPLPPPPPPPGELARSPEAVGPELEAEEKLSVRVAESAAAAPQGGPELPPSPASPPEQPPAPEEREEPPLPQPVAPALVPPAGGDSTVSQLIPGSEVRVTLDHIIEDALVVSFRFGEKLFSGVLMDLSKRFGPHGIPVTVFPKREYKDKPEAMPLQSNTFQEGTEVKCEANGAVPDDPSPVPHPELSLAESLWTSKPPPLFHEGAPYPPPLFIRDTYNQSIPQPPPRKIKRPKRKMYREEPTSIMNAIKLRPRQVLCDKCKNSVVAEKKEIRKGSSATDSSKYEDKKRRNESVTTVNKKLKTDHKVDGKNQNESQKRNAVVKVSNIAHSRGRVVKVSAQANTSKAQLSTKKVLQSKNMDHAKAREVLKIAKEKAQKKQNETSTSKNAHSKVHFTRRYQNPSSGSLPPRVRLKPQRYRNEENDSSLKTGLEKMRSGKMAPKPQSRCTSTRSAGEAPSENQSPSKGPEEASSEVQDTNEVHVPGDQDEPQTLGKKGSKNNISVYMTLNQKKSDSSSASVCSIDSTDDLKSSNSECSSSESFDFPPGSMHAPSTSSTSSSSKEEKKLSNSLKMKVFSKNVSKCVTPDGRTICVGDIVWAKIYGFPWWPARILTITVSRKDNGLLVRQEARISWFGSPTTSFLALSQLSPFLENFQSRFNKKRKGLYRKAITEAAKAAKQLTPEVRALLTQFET

Question: How did the binding turn out when MDC1 (from UniProt Q14676 1-2089) was run?
Answer: binds

Question: “CHD5 (from UniProt Q8TDI0 1-1954) (enzyme)” was tested. Which binding did it give?
Answer: no binding

Question: How did the binding turn out when RAI1 (from UniProt Q7Z5J4 1-1906) was run?
Answer: binds

Question: How did the binding turn out when MBD2 (from UniProt Q9UBB5 1-411) was run?
Answer: no binding

Question: For GATAD2B (from UniProt Q8WXI9 1-593), which binding is on record?
Answer: no binding

Question: “CHD3 (from UniProt Q12873 1-2000) (enzyme)” was tested. Which binding did it give?
Answer: no binding

Question: BRWD3 (from UniProt Q6RI45 1-1802) was tested. Which binding did it give?
Answer: binds

Question: Which binding does the source give for ATRX (from UniProt P46100 1-2492) here?
Answer: binds

Question: How did the binding turn out when “CHD4 (from UniProt Q14839 1-1912) (enzyme)” was run?
Answer: no binding

Question: For HMG20A (from UniProt Q9NP66 1-347), which binding is on record?
Answer: binds

Question: Which binding does the source give for DAXX (from UniProt Q9UER7 1-740) here?
Answer: binds

Question: With “HDAC2 (from UniProt Q92769 1-488) (enzyme)” as the molecule, how does the binding read?
Answer: binds

Question: For B1, which binding is on record?
Answer: binds

Question: How did the binding turn out when B2 was run?
Answer: binds

Question: B3 was tested. Which binding did it give?
Answer: binds

Question: With B4 as the molecule, how does the binding read?
Answer: binds

Question: With B5 as the molecule, how does the binding read?
Answer: binds
